Measured values as given in the supplement of paper PMC12067093, “Discovery and optimisation of a covalent ligand for TRIM25 and its application to targeted protein ubiquitination” (Chemical Science, 2025).
The other results are listed elsewhere or left out.

Compound: CC1Cc2ccccc2N1C(=O)C1CCCN(C1)C(=O)CCl (mixture of isomers) [TRIM25 ligand 11 (diastereomer mixture)]
Assay: probe-labelled cysteine peptide fold change vs DMSO (competition) (log2 fold change); higher = less target engagement (more negative = stronger competition)
Settings: THP-1, incubation time: 4 h
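Further: competitive chemoproteomic profiling in live THP-1 cells with an iodoacetamide desthiobiotin (IA-DTB) probe, comparing probe-labelled peptide intensities in compound-treated cells against DMSO-treated controls.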

Target | probe-labelled cysteine peptide fold change (10 µM) | probe-labelled cysteine peptide fold change (50 µM)
MYO9A_B2RTY4_1973_TSDCTATK (UniProt B2RTY4) | -0.00813 | -0.134
NCBP1_Q09161_332_TCAAQLVSYPGK (UniProt Q09161) | -0.0334 | -0.119
MYH9_P35579_917_KQELEEICHDLEAR (UniProt P35579) | 0.00836 | 0.00314
MYO18A_Q92614_1155_AVEELLECLDLEK (UniProt Q92614) | 0.0375 | 0.248
NAXE_Q8NCW5_283_KYQLNLPPYPDTECVYR (UniProt Q8NCW5) | -0.147 | -0.069
NBEAL2_Q6ZNJ1_2335_ALEGIISNFGQTPCQLLK (UniProt Q6ZNJ1) | 0.0509 | -0.034
MYO6_Q9UM54_63_DVEDNCSLMYLNEATLLHNIK (UniProt Q9UM54) | 0.038 | -0.144
NAGA_P17050_42_CNINCDEDPK (UniProt P17050) | 0.0302 | 0.201
NBEAL2_Q6ZNJ1_1491_GQVFSVLTQLGASATLVRPPDCIK (UniProt Q6ZNJ1) | -0.0164 | -0.0673
MYO1G_B0I1T2_97_SRDTCIVISGESGAGK (UniProt B0I1T2) | -0.0106 | 0.0895
NANP_Q8TBE9_49_EEAEIICDK (UniProt Q8TBE9) | 0.0923 | 0.0345
NAA80_Q93015_104_LHSLGQSSDAFPLCLMLLSPHPTLEAAPVVVGHAR (UniProt Q93015) | -0.101 | -0.0231
NAA50_Q9GZZ1_100_MLNHVLNICEK (UniProt Q9GZZ1) | 0.00145 | 0.0562
NARF_Q9UHQ1_192_VLGRPITAHLCTAK (UniProt Q9UHQ1) | -0.127 | -0.262

Shown with tabs: entries from further up
Target	probe-labelled cysteine peptide fold change (10 µM)	probe-labelled cysteine peptide fold change (50 µM)
MYH9_P35579_917_KQELEEICHDLEAR (UniProt P35579)	0.00836	0.00314
MYO18A_Q92614_1155_AVEELLECLDLEK (UniProt Q92614)	0.0375	0.248
